Results are given in words; binding and its absence hold for the method and conditions named. For some assays here: Binding can be weak; no strength is given. Values belong to the substance of their own block, whether it stands above or below them.
Experiments:
[1] = molecular target: T1, PaxA_(981-1084), T1-CDD di-domain construct (apo), X. cabanillasii JM26 (Xenorhabdus cabanillasii JM26) (UniProt W1J0W9); experiment: ITC; PaxA construct titrated with the PaxB NDD peptide or its variant; n=3 for the variants; both purified
T1 sequence: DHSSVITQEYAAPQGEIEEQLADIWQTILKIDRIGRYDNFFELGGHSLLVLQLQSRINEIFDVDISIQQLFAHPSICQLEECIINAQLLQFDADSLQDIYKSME

[2] = molecular target: T1, PaxA_(981-1084), T1-CDD di-domain construct (apo), X. cabanillasii JM26 (Xenorhabdus cabanillasii JM26); experiment: NMR solution structure; 1:1 complex of PaxA T1-CDD di-domain and PaxB NDD (X. cabanillasii), from intra- and intermolecular NOEs; both purified
[3] = molecular target: T2, PaxA_(1066-1084), isolated PaxA CDD, X. cabanillasii JM26 (Xenorhabdus cabanillasii JM26) (UniProt W1J0W9); experiment: ITC; PaxA construct titrated with the PaxB NDD peptide or its variant; n=3 for the variants; both purified
T2 sequence: AQLLQFDADSLQDIYKSME

[4] = molecular target: T3, PaxA_(981-1071), isolated PaxA T1 domain, X. cabanillasii JM26 (Xenorhabdus cabanillasii JM26) (UniProt W1J0W9); experiment: as above
T3 sequence: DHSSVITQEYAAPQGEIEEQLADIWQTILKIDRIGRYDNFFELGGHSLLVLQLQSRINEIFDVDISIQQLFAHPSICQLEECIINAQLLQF

[5] = molecular target: T4, PaxA T1-CDD di-domain with the Ppant moiety (holo), X. cabanillasii JM26 (Xenorhabdus cabanillasii JM26) (UniProt W1J0W9); experiment: as above
T4 sequence (chain, phosphopantetheinyl (Ppant) arm attached to residue S1027): T1 sequence

[6] = molecular target: T1, PaxA_(981-1084), T1-CDD di-domain construct (apo), X. cabanillasii JM26 (Xenorhabdus cabanillasii JM26); experiment: NMR titration; both purified
[7] = molecular target: T5, PaxA_(986-1076), isolated T1 domain, X. bovienii SS-2004 (Xenorhabdus bovienii SS-2004); experiment: ITC; PaxA construct titrated with the PaxB NDD peptide or its variant; n=3 for the variants; both purified
T5 sequence: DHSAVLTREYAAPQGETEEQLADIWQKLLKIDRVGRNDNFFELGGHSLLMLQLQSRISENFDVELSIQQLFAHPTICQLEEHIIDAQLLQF

[8] = molecular target: T6, PaxA_(1071-1089) (PaxA CDD), X. bovienii SS-2004 (Xenorhabdus bovienii SS-2004); experiment: as above
T6 sequence: AQLLQFDAESLQDLYKTMG

Substance: PaxB NDD variant where residues 1-8 were deleted, X. cabanillasii JM26 (Xenorhabdus cabanillasii JM26) (domain or fragment)
- binding [1]: no binding

Substance: PaxB_(1-30) (PaxB NDD), X. cabanillasii JM26 (Xenorhabdus cabanillasii JM26) (domain or fragment)
- binding [2]: binds
- binding [3]: no binding
- binding [4]: no binding
- binding [5]: binds
- binding [6]: binds

- binding [7]: binds weakly
- binding [8]: binds weakly
Substance: PaxB_(1-36) (PaxB NDD), X. bovienii SS-2004 (Xenorhabdus bovienii SS-2004) (domain or fragment)

Source: PMC8251938, “Cooperation between a T Domain and a Minimal C‐Terminal Docking Domain to Enable Specific Assembly in a Multiprotein NRPS” (Angewandte Chemie (International Ed. in English), 2021)
